Measured values reported in the supplement of paper PMC12889115.
Some of the results follow. These are raw signals, not scaled to a control.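 In the initial screen, polymyxin B was used at a concentration that permeabilizes Salmonella's outer membrane but not its inner membrane. Maximum growth was set by DMSO wells with or without polymyxin B. Since plates varied, data were ranked per plate, and compounds giving the lowest OD600 advanced as hits.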

Test system: Salmonella enterica serovar Typhimurium SL1344
Experiment: bacterial growth OD600 after 18 h with compound and polymyxin B; higher = more bacterial growth (less inhibition)
Conditions: 50 µM, Mueller-Hinton broth

SMILES	bacterial growth OD600 (polymyxin B 1 µg/mL)	bacterial growth OD600 (polymyxin B 0.75 µg/mL)
CC(C)N(C)C(=O)CC1C(=O)NCCN1Cc1ccc(F)cc1Cl (stereo unspecified)	0.89	–
COc1ccccc1OCC(=O)NCC1CCCN(Cc2ccccc2C)C1 (stereo unspecified)	0.854	–
Cc1nc(C)c(C(=O)N2CCc3[nH]nc(-c4ccc5c(c4)OCO5)c3C2)s1	–	0.695
C=CCC(=O)N1CCC(Oc2ccc(C(=O)NC3CCCC3)cc2Cl)CC1	1.22	–
Cc1ncc2c(c1CNC(=O)CSc1ccccc1)CCN(C(=O)C1COc3ccccc3O1)C2 (stereo unspecified)	–	0.788
COC(=O)[C@@H](NC1CCN(c2cccc(NC(=O)c3ccncc3)c2)CC1)c1ccccc1	–	0.826
c1ccc(-c2ncc3c(n2)CCCC3NC2CCCC2)cc1 (stereo unspecified)	0.864	–
COCCNC(=O)CCC1CCN(Cc2cccc3cccnc23)CC1	0.89	–
COCCNC1CCN(c2ccc(NC(=O)CCCCc3ccccc3)cc2)CC1	–	0.822
COc1cccc(OCc2nc(C(=O)NCc3ccc(F)c(F)c3)co2)c1	0.701	–
Cc1cnc(CNC(=O)c2cc(Cn3c(C)nc4ccccc43)[nH]n2)cn1	1.27	–
CN(C)C(=O)CC(c1ccccc1)c1ccccc1Cl (stereo unspecified)	0.531	–
c1cc(CNC2COc3ccccc3C2)cc(-c2ccco2)c1 (stereo unspecified)	0.822	–
CCOC(=O)C1(Cc2ccc(F)cc2)CCCN(C(=O)CCn2nccc2C)C1 (stereo unspecified)	0.816	–
Cc1cccc(NC(=O)CCC2CCN(C(=O)CCN3CCCCC3=O)CC2)c1	0.97	–
CC1CN(C(=O)c2ccc(OC3CCN(CC(C)(C)C)CC3)c(Cl)c2)CCN1C (stereo unspecified)	0.922	–
NC(=O)C1CCN(Cc2cn(Cc3ccccc3)nc2-c2ccc3c(c2)OCO3)CC1	1.03	–
CCN(CCn1cccn1)Cc1nc(-c2ccc(C(F)(F)F)cc2)oc1C	0.733	–
Cc1c[nH]c(CN2CCC(c3ccc(F)c(F)c3)Sc3ccccc32)n1 (stereo unspecified)	–	0.672
O=S(=O)(c1ccc(Cl)s1)N1CCC(n2c(CCc3ccccc3)nc3cccnc32)CC1	–	0.676
COc1ccc(CN2CCCC(CO)(Cc3cccc(OC)c3)C2)cc1 (stereo unspecified)	0.985	–

Record cards, from the list above:
COCCNC1CCN(c2ccc(NC(=O)CCCCc3ccccc3)cc2)CC1 reads bacterial growth OD600 (polymyxin B 0.75 µg/mL): 0.822
Cc1nc(C)c(C(=O)N2CCc3[nH]nc(-c4ccc5c(c4)OCO5)c3C2)s1 reads bacterial growth OD600 (polymyxin B 0.75 µg/mL): 0.695
